No constants are given. Whether binding was seen depends on the method and setting. Some results given as binding are weak or reduced against the parent protein; the word gives no strength. Where a sequence is shown, tags or fusion partners need not be part of it.

The record followed here is patent US20160304610A1 (JOUNCE THERAPEUTICS, published 2016).

In this assay the target is T1, ICOSL.
T1 sequence: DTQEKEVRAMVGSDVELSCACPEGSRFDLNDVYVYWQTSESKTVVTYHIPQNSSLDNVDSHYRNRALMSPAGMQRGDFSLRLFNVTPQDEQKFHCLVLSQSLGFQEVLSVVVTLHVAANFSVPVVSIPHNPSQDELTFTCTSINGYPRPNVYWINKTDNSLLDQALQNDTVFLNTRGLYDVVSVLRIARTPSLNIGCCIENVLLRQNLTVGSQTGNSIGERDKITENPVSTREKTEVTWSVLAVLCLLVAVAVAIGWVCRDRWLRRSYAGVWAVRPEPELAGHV
The assay can be described thus: flow cytometry of cynomolgus whole blood, DyLight 650 labeled cynoICOS-Fc on viable CD3- CD20+ B cells, MFI normalised to vehicle at each time point; used by the filing to measure ICOSL expression.

B1: cynomolgus ICOS-Fc (homodimeric, bivalent) (Fc fusion, not shown: a dimerising Fc or GST)
chain: EINGSANYEMFIFHNGGVQILCKYPDIVQQFKMQLLKGGQILCDLTKTKGSGNKVSIKSLKFCHSQLSNNSVSFFLYNLDRSHANYYFCNLSIFDPPPFKVTLTGGYLHIYESQLCCQLK
On to B1, for which the binding entry is recorded as “binds”.
